In patent US6350769B1 (The Regents of the University of California, priority 1999, dated 2002):
At least one compound was matched to its structure with a doubt left.

Test system: lymph node T cell
Assay: antigen-primed lymph node T cell proliferative recall response (3H-thymidine incorporation)
Assay type: cell-based, NOD, Balb/c and AKR mice
Details: different (also high) concentrations of GABA, GADp35
Experimental: NOD, Balb/c and AKR mice were immunized with an immunogenic foreign (HEL) or self (GAD) peptide in 50% CFA. […] Groups of 5 mice were tested in two independent experiments.
Lymph node mononuclear cells from GADp35 primed NOD mice were pretreated with different concentrations of muscimol or baclofen in vitro, and then challenged with 7 μM GADp35 to stimulate antigen specific T cell proliferation. The data are presented as the per cent ^3H-thymidine incorporation relative to control peptid-estimulated cells without muscimol or baclofen treatment. Lymph node mononuclear cells in medium alone served as negative controls. […] Groups of 5-6 mice were tested in two independent experiments.
Groups of 5 mice were tested in three independent experiments.
Lymph node mononuclear cells from NOD mice which were immunized with GADp35 were cultured with bicuculline, RU5135 or picrotoxin. […] The data are expressed as the per cent ^3H-thymidine incorporation relative to control antigen-stimulated cells without any drug treatment. […] Groups of 5-6 mice were tested in three independent experiments.
Three strains of mice with different MHC class II alleles were immunized with an immunogenic peptide from hen egg lysozyme (HEL). […] Mice were injected with 20 nM peptide in 50% complete Freund's adjuvant (CFA, Gibco) in their hind food-pad. […]

Structure (SMILES): CN1CCc2cc3c(cc2[C@H]1[C@@H]1OC(=O)c2c1ccc1c2OCO1)OCO3 [bicuculline]
- immuno-inhibitory effect of GABA on co-incubation with the compound: greatly reduced
